Experimental findings from article PMC8505008 are described below.

Chains of the proteins cited; added tags and fusions are not shown. Lines headed by an entry give the natural chain unless they say otherwise; changes in a name come on top.
UniProt P04050: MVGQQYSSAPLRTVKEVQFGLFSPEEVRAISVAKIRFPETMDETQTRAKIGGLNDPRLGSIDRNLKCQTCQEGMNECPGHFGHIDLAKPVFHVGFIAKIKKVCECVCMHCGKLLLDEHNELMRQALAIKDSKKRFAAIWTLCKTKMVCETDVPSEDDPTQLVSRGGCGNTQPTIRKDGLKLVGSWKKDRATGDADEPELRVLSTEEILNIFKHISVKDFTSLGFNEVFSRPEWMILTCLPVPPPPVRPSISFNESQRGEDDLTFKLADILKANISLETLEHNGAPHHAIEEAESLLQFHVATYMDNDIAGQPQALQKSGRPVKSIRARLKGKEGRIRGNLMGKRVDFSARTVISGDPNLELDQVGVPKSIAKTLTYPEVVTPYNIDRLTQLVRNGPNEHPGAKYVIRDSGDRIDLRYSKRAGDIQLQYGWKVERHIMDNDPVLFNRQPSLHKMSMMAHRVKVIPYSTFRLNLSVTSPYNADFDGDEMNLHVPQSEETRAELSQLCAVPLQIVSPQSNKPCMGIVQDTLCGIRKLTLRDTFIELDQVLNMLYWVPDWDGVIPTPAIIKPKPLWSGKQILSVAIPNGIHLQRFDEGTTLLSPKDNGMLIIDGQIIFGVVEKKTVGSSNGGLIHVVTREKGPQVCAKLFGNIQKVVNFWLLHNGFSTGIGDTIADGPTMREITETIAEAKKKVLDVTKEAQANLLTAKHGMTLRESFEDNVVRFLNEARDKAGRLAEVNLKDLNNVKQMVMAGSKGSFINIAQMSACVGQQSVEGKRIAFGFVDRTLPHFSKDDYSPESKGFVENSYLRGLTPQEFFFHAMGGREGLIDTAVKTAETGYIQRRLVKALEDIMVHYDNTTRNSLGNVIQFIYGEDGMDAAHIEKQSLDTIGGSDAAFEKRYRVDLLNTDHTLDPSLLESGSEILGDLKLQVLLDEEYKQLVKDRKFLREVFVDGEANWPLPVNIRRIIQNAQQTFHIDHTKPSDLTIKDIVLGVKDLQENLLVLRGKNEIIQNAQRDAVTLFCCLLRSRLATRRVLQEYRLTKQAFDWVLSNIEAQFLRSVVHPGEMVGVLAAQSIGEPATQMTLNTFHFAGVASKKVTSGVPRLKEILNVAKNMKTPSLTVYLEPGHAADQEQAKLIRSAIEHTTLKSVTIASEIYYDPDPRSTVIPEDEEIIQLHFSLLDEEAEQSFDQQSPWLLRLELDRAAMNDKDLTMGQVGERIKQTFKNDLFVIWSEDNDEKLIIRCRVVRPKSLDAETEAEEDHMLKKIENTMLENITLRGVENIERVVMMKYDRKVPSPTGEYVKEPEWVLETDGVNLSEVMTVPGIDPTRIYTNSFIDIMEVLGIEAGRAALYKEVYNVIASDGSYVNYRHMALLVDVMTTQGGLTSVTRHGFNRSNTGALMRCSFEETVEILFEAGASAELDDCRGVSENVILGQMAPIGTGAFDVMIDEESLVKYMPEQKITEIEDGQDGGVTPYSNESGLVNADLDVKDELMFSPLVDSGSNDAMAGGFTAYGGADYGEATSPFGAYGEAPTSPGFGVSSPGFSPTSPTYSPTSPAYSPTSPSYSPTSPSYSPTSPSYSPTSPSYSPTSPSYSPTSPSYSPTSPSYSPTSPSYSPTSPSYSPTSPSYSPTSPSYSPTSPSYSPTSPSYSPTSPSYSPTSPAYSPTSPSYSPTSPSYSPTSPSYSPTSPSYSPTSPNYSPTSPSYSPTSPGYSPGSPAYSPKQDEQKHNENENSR
UniProt Q12306: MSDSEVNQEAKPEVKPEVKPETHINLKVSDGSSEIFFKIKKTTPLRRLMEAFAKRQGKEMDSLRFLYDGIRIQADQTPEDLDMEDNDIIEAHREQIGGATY

No constants are given. Whether binding was seen depends on the method and setting. In cells and extracts the contact can be indirect. Some entries that bind do so weakly or less than the wild type. Sequences can lack the tags named with a protein.

The target of assay [1] is T1, Tfg1-HA (large subunit of TFIIF with a 6xHA tag) (budding yeast) (UniProt P41895).
T1 sequence: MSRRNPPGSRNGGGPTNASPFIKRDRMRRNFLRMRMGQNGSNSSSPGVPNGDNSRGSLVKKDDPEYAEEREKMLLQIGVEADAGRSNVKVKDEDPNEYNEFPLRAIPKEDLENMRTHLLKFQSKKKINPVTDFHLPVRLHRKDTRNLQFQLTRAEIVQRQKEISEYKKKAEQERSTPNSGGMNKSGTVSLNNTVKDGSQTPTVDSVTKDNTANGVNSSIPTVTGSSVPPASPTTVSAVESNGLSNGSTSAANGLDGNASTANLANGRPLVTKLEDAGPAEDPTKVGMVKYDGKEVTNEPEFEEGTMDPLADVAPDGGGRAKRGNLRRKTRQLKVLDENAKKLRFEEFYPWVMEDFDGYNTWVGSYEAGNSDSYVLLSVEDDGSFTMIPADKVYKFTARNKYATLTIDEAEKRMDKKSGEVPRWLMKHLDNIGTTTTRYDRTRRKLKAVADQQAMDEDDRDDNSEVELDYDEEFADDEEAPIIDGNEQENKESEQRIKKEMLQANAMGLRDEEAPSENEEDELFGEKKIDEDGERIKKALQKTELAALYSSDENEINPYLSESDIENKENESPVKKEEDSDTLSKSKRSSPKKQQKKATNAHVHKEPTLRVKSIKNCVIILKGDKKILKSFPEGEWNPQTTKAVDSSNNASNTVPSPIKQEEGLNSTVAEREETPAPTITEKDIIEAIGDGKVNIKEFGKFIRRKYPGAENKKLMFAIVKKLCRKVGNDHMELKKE
Nature of the assay: co-IP; HA IP (Protein G agarose, overnight) from non-denaturing yeast lysates (50 mM Tris-HCl pH 8, 150 mM NaCl, 0.1% NP40, PMSF, NEM); Rpb1 (8WG16) and HA immunoblots; also done in ulp1-mt (I615N) and ULP1 parental backgrounds, with significantly less Rpb1 in ulp1-mt.

Assay [2] deals with T2, Tfg1-K60,61R-HA (budding yeast) (UniProt P41895).
T2 sequence: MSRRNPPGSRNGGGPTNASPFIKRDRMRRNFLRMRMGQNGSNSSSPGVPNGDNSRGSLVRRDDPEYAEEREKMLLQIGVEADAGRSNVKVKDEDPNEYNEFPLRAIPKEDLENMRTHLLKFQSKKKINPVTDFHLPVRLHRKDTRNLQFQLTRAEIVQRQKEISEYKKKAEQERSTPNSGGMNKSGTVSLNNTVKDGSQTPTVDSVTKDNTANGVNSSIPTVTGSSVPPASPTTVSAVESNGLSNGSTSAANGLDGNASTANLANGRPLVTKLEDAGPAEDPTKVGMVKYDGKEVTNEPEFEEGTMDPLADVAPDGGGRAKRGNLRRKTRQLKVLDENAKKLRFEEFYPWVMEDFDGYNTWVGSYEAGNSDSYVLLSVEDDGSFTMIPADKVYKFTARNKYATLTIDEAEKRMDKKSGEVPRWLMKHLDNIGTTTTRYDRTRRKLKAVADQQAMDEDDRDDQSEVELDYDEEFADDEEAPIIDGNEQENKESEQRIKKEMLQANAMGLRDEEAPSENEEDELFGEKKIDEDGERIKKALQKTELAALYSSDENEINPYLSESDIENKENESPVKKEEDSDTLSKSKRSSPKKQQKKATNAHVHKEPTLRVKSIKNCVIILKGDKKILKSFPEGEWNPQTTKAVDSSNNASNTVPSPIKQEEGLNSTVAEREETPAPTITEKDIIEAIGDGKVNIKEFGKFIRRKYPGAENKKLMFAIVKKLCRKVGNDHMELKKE
The description is as above.

Assay [3] addresses Rpb1, the large subunit of RNA polymerase II (budding yeast (endogenous in W303-derived strains)) (UniProt P04050). The experiment in a line: co-IP; Rpb1 (8WG16) IP (Protein G agarose, overnight) from non-denaturing yeast lysates (50 mM Tris-HCl pH 8, 150 mM NaCl, 0.1% NP40, PMSF, NEM); HA and Rpb1 immunoblots; also done in ulp1-mt (I615N) and ULP1 parental backgrounds, with dramatically less Tfg1-HA in ulp1-mt. (In general: In western blotting, separated proteins are transferred to a membrane and probed.)

Turning to “Rpb1, the large subunit of RNA polymerase II (from UniProt P04050 1-1733)”, the binding entry in assay [1] and in assay [2] was “binds” throughout.
For “SUMO-Tfg1-HA (Tfg1-HA with a non-cleavable N-terminal fusion with the yeast SUMO peptide) (from UniProt Q12306 1-96; P41895 1-735)”, the binding result in assay [3] was “binds”.

B1: Tfg1-HA (large subunit of TFIIF with a 6xHA tag) (protein, UniProt P41895 1-735)
chain: MSRRNPPGSRNGGGPTNASPFIKRDRMRRNFLRMRMGQNGSNSSSPGVPNGDNSRGSLVKKDDPEYAEEREKMLLQIGVEADAGRSNVKVKDEDPNEYNEFPLRAIPKEDLENMRTHLLKFQSKKKINPVTDFHLPVRLHRKDTRNLQFQLTRAEIVQRQKEISEYKKKAEQERSTPNSGGMNKSGTVSLNNTVKDGSQTPTVDSVTKDNTANGVNSSIPTVTGSSVPPASPTTVSAVESNGLSNGSTSAANGLDGNASTANLANGRPLVTKLEDAGPAEDPTKVGMVKYDGKEVTNEPEFEEGTMDPLADVAPDGGGRAKRGNLRRKTRQLKVLDENAKKLRFEEFYPWVMEDFDGYNTWVGSYEAGNSDSYVLLSVEDDGSFTMIPADKVYKFTARNKYATLTIDEAEKRMDKKSGEVPRWLMKHLDNIGTTTTRYDRTRRKLKAVADQQAMDEDDRDDNSEVELDYDEEFADDEEAPIIDGNEQENKESEQRIKKEMLQANAMGLRDEEAPSENEEDELFGEKKIDEDGERIKKALQKTELAALYSSDENEINPYLSESDIENKENESPVKKEEDSDTLSKSKRSSPKKQQKKATNAHVHKEPTLRVKSIKNCVIILKGDKKILKSFPEGEWNPQTTKAVDSSNNASNTVPSPIKQEEGLNSTVAEREETPAPTITEKDIIEAIGDGKVNIKEFGKFIRRKYPGAENKKLMFAIVKKLCRKVGNDHMELKKE
As to B1, in assay [3], the binding result was “binds”.

B2: Tfg1-K60,61R-HA (protein, UniProt P41895 1-735)
chain: MSRRNPPGSRNGGGPTNASPFIKRDRMRRNFLRMRMGQNGSNSSSPGVPNGDNSRGSLVRRDDPEYAEEREKMLLQIGVEADAGRSNVKVKDEDPNEYNEFPLRAIPKEDLENMRTHLLKFQSKKKINPVTDFHLPVRLHRKDTRNLQFQLTRAEIVQRQKEISEYKKKAEQERSTPNSGGMNKSGTVSLNNTVKDGSQTPTVDSVTKDNTANGVNSSIPTVTGSSVPPASPTTVSAVESNGLSNGSTSAANGLDGNASTANLANGRPLVTKLEDAGPAEDPTKVGMVKYDGKEVTNEPEFEEGTMDPLADVAPDGGGRAKRGNLRRKTRQLKVLDENAKKLRFEEFYPWVMEDFDGYNTWVGSYEAGNSDSYVLLSVEDDGSFTMIPADKVYKFTARNKYATLTIDEAEKRMDKKSGEVPRWLMKHLDNIGTTTTRYDRTRRKLKAVADQQAMDEDDRDDQSEVELDYDEEFADDEEAPIIDGNEQENKESEQRIKKEMLQANAMGLRDEEAPSENEEDELFGEKKIDEDGERIKKALQKTELAALYSSDENEINPYLSESDIENKENESPVKKEEDSDTLSKSKRSSPKKQQKKATNAHVHKEPTLRVKSIKNCVIILKGDKKILKSFPEGEWNPQTTKAVDSSNNASNTVPSPIKQEEGLNSTVAEREETPAPTITEKDIIEAIGDGKVNIKEFGKFIRRKYPGAENKKLMFAIVKKLCRKVGNDHMELKKE
Consider B2, for which the binding result in assay [3] is recorded as “binds”.
